Among the data in paper PMC4335217 are binding values, retold here.

Sequences of proteins named here, by UniProt entry; tags and fusion partners are left off.
UniProt Q4JK59: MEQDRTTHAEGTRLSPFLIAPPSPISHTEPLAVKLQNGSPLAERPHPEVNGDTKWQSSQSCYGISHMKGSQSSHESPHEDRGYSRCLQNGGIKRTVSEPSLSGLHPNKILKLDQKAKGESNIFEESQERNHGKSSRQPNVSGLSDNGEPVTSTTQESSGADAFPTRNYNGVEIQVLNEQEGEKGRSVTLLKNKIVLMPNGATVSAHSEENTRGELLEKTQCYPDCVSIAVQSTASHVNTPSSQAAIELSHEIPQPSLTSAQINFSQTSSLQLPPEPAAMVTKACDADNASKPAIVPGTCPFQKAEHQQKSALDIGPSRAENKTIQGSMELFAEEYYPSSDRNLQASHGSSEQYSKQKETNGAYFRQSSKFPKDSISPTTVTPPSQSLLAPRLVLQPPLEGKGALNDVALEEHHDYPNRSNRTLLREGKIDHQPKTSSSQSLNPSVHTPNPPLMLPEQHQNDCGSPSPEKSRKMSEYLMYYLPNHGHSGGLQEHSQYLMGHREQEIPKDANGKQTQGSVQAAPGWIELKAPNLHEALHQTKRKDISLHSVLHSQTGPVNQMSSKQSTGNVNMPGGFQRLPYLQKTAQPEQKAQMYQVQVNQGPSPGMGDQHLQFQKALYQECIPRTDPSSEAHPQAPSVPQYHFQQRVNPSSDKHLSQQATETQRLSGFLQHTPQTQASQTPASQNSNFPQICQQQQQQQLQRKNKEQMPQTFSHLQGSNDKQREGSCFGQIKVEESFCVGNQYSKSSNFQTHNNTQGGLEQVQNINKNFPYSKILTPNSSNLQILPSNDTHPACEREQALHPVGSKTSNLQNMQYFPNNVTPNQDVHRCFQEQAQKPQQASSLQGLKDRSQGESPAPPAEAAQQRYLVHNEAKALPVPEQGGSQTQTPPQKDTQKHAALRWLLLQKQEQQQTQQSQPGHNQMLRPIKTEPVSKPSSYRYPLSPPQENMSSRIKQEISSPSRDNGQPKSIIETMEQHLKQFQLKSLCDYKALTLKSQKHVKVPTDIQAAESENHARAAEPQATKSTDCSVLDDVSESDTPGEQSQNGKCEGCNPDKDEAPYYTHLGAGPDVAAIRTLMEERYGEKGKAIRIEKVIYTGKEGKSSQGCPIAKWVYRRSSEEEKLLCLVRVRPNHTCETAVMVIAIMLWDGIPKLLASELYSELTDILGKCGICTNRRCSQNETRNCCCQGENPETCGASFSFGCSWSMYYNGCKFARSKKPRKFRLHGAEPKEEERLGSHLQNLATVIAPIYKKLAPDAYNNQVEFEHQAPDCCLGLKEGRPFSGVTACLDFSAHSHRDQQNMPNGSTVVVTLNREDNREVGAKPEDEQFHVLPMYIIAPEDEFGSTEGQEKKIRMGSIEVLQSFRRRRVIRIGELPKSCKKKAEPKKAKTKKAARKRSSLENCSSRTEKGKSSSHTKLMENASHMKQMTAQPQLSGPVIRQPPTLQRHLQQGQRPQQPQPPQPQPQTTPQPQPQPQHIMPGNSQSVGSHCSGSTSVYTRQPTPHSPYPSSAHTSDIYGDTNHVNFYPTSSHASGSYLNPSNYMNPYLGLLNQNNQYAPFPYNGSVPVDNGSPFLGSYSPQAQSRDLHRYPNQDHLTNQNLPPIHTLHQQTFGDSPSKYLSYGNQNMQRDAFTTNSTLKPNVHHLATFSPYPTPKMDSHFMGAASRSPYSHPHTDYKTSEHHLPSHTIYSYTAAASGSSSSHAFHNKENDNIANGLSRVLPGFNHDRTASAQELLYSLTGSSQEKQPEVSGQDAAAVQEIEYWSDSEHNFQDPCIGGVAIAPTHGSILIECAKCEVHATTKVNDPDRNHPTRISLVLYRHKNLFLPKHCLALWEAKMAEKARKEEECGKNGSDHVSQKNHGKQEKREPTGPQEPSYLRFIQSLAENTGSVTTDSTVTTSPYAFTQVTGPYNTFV

Changes are numbered by the printed parent chain. Numbers in names are those of the source. Results are given in words; binding and its absence hold for the method and conditions named. Binding seen in cells or lysates may run through a third protein. Some binding calls cover weakened binding; strength is not graded here.

In this assay the target is GFP-TET2 (murine) (UniProt Q4JK59). The experiment in a line: co-IP; GFP-tagged TET proteins coexpressed with Cherry-OGT or Cherry-OGT^mut in HEK293T cells; enriched with GFP-Trap; Western blot, Cherry-tagged OGT detected with anti-RED antibody.

B1: Cherry-OGT(H508A) (enzyme, UniProt Q8CGY8 1-1046)
chain: MASSVGNVADSTEPTKRMLSFQGLAELAHREYQAGDFEAAERHCMQLWRQEPDNTGVLLLLSSIHFQCRRLDRSAHFSTLAIKQNPLLAEAYSNLGNVYKERGQLQEAIEHYRHALRLKPDFIDGYINLAAALVAAGDMEGAVQAYVSALQYNPDLYCVRSDLGNLLKALGRLEEAKACYLKAIETQPNFAVAWSNLGCVFNAQGEIWLAIHHFEKAVTLDPNFLDAYINLGNVLKEARIFDRAVAAYLRALSLSPNHAVVHGNLACVYYEQGLIDLAIDTYRRAIELQPHFPDAYCNLANALKEKGSVAEAEDCYNTALRLCPTHADSLNNLANIKREQGNIEEAVRLYRKALEVFPEFAAAHSNLASVLQQQGKLQEALMHYKEAIRISPTFADAYSNMGNTLKEMQDVQGALQCYTRAIQINPAFADAHSNLASIHKDSGNIPEAIASYRTALKLKPDFPDAYCNLAHCLQIVCDWTDYDERMKKLVSIVAEQLEKNRLPSVHPAHSMLYPLSHGFRKAIAERHGNLCLDKINVLHKPPYEHPKDLKLSDGRLRVGYVSSDFGNHPTSHLMQSIPGMHNPDKFEVFCYALSPDDGTNFRVKVMAEANHFIDLSQIPCNGKAADRIHQDGIHILVNMNGYTKGARNELFALRPAPIQAMWLGYPGTSGALFMDYIITDQETSPAEVAEQYSEKLAYMPHTFFIGDHANMFPHLKKKAVIDFKSNGHIYDNRIVLNGIDLKAFLDSLPDVKIVKMKCPDGGDNPDSSNTALNMPVIPMNTIAEAVIEMINRGQIQITINGFSISNGLATTQINNKAATGEEVPRTIIVTTRSQYGLPEDAIVYCNFNQLYKIDPSTLQMWANILKRVPNSVLWLLRFPAVGEPNIQQYAQNMGLPQNRIIFSPVAPKEEHVRRGQLADVCLDTPLCNGHTTGMDVLWAGTPMVTMPGETLASRVAASQLTCLGCLELIAKSRQEYEDIAVKLGTDLEYLKKIRGKVWKQRISSPLFNTKQYTMELERLYLQMWEHYAAGNKPDHMIKPVEVTESA
With B1, the binding result was “binds”.

B2: Cherry-OGT (enzyme, UniProt Q8CGY8 1-1046)
chain: B1 chain with A508H
On to B2, for which the binding entry is listed as “binds”.
